Results on three substances are retold here after patent publication US6372898.

Amino acid sequences for entries named in this document (tags omitted). A change or cut given only in a name is not applied to a line headed by its entry.
UniProt P52333: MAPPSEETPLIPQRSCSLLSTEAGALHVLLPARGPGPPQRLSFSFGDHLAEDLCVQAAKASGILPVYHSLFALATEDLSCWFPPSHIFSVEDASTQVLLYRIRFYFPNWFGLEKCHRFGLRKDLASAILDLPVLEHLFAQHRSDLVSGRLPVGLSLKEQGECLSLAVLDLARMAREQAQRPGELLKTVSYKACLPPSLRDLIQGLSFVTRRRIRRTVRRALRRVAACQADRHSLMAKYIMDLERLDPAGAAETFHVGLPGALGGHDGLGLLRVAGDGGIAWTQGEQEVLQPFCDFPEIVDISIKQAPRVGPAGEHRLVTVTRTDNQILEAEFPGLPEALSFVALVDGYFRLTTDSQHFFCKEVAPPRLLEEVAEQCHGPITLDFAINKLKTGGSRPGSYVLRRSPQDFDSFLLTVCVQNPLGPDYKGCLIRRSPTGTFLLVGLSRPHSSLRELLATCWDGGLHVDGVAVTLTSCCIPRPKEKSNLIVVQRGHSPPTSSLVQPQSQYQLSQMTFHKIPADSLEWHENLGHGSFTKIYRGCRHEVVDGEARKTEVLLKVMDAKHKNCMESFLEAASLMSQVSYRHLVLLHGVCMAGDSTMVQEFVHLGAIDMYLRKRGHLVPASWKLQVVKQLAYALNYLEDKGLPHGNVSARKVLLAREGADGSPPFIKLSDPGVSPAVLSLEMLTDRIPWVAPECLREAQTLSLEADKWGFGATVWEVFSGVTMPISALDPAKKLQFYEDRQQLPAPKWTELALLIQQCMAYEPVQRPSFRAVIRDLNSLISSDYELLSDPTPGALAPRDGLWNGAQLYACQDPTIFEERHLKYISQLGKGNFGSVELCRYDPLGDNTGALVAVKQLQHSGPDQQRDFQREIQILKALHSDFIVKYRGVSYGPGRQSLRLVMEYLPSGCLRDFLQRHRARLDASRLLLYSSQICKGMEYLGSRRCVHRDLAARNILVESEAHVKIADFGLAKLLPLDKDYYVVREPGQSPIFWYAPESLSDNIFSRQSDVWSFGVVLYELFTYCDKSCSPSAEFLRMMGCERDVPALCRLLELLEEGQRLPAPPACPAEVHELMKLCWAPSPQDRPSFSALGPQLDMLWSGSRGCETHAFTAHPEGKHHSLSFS

Results are given in words; binding and its absence hold for the method and conditions named. In cells and extracts the contact can be indirect. Some results given as binding are weak or reduced against the parent protein; the word gives no strength.

For experiment [1], the target named is T1, cytokine receptor common gamma chain (γc), wild type (human) (UniProt P31785).
T1 sequence: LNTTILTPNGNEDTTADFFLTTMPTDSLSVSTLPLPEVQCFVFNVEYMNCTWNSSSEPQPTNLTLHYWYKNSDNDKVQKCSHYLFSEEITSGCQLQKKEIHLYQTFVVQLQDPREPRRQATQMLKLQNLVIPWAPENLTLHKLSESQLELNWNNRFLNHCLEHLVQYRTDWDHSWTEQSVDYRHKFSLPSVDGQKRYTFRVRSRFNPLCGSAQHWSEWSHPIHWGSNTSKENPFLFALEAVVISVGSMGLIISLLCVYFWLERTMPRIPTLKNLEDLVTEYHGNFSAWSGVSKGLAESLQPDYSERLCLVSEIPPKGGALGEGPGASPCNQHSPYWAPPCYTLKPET
The experiment in a line: co-immunoprecipitation from 293T lysates; goat anti-γc IP, blot anti-Myc 9E10.

In experiment [2] the target is T1, cytokine receptor common gamma chain (γc), wild type (human). The experiment in a line: co-immunoprecipitation from 293T lysates; γc precipitated, blot for the epitope-tagged Jak3 fragment.
The target is the same in experiment [3]. Briefly: co-immunoprecipitation from 293T lysates.

In the case of “Myc-tagged Jak3 fragment 1-193 (from UniProt P52333 1-193)”, the binding result in experiment [1] and in experiment [2] was “binds” throughout. Turning to “Jak3 fragment J3 1-130 (from UniProt P52333 1-130)”, the binding entry in experiment [2] is given as “binds”. Consider “Jak3 fragment J3 72-130 (from UniProt P52333 72-130)”, for which the binding result in experiment [3] and in experiment [2] was “binds” in each case.
